PubChem BioAssay AID602196, INSERM, 2012

- Aim: 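Knock-downs that protect lung cancer cells from cisplatin or sensitise them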
- Cell system: human A549 lung cancer cells
- Reagents: siRNA pair against human genes
- Duration: 48 h transfection before cisplatin; time from cisplatin to read-out not stated
- Conditions: cisplatin at a dose killing half of control-siRNA cells; exact dose and duration not given
- Detection: 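Cisplatin cell death as a shift from the 50% death seen with control siRNA; siRNAs toxic or growth-blocking alone scored 0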
- Scale: two-siRNA summed score (-2 to +2): higher = both siRNAs protect from cisplatin killing; -2 means both sensitise
- Active means: 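Each siRNA scores 0 if harmful alone by LDH or WST-1, otherwise +1 if it reduces and -1 if it increases cisplatin killing; a gene is active when both siRNAs agree (sum +2 or -2)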
- Calls: active = both siRNAs shift cisplatin killing the same way; inactive = no consistent shift, or siRNA harmful alone
Here is a random part of about 23,000 reagents tested. 455 of them (2%) count as active. 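Active includes both protection and sensitisation; some change values fall well beyond the stated -50 to +50 range.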 Not all columns of the deposit are shown. Not given: the amount of reagent.

gene symbol	two-siRNA summed score (-2 to +2)	Call
TBXA2R	0	inactive
LOC342600	0	inactive
PACRG	0	inactive
MYOCD	0	inactive
MYL9	-1	inactive
CES4A	0	inactive
CELA2A	0	inactive
LOC440403	0	inactive
LPCAT3	0	inactive
EML4	0	inactive
CISH	0	inactive
FBXW5	0	inactive
PKD1	-1	inactive
PTPRN	0	inactive
SYNJ2	0	inactive
LOC388939	-1	inactive
TBC1D17	0	inactive
CPA5	0	inactive
BPI	-1	inactive
LOC401038	0	inactive
ZNF367	0	inactive
LOC338918	0	inactive
OR4K1	0	inactive
LOC390244	0	inactive
LOC440899	0	inactive
EVI2B	0	inactive
NPBWR2	1	inactive
MPI	-1	inactive
OR6C70	-1	inactive

Reprinted from the listing, 4 entries:
gene symbol	two-siRNA summed score (-2 to +2)	Call
MYOCD	0	inactive
MYL9	-1	inactive
CES4A	0	inactive
CELA2A	0	inactive

Additional records follow.
gene symbol	two-siRNA summed score (-2 to +2)	Call
HNRNPA1P56	0	inactive
PRDM9	0	inactive
PRKAR1B	0	inactive
FCRL5	0	inactive
LOC440853	0	inactive
RIMOC1	0	inactive
KLF3-AS1	0	inactive
DCUN1D2	0	inactive
CCNL2	0	inactive
LOC343629	0	inactive
FILIP1L	0	inactive
STRA8	1	inactive
RFK	0	inactive
DKFZp686I0554	1	inactive
TMEM256	0	inactive
LOC388924	1	inactive
LOC127540	0	inactive
VAMP3	0	inactive
KRT33B	-2	active
PLB1	0	inactive
CYLD	-1	inactive
PRCC	0	inactive
HBD	0	inactive
ZNF100	0	inactive
LOC346887	0	inactive
MRPL28	0	inactive
LOC388298	1	inactive
ZNF775	0	inactive
P2RX6	0	inactive
IDH3G	0	inactive
CYP26B1	0	inactive
HEPACAM2	0	inactive
LOC136157	0	inactive
B4GALT1	1	inactive
LOC285110	1	inactive
LOC163233	0	inactive
LOC388496	1	inactive
KIR2DS1	0	inactive
FBH1	0	inactive
LRP4	0	inactive
ITGA3	0	inactive
EIF5	0	inactive
SHPRH	0	inactive
ANKS1B	0	inactive
